Common to all, as to experiment: DAPPL (digital affinity profiling via proximity ligation, sequencing)
Common to all, as to conditions: 10 mM Tris-HCl pH 7.5, 50 mM NaCl, 1 mM DTT, 4% glycerol, room temperature, 30 min; GST-TFs on glutathione beads, 16-mer random dsDNA library, 0.1% …; high values mean tight binding; double strand, one strand shown; scale: fold enrichment (6-mer frequency, TF over GST control)

Chains of the proteins cited; added tags and fusions are not shown. Lines headed by an entry give the natural chain unless they say otherwise; changes in a name come on top.
UniProt P41212: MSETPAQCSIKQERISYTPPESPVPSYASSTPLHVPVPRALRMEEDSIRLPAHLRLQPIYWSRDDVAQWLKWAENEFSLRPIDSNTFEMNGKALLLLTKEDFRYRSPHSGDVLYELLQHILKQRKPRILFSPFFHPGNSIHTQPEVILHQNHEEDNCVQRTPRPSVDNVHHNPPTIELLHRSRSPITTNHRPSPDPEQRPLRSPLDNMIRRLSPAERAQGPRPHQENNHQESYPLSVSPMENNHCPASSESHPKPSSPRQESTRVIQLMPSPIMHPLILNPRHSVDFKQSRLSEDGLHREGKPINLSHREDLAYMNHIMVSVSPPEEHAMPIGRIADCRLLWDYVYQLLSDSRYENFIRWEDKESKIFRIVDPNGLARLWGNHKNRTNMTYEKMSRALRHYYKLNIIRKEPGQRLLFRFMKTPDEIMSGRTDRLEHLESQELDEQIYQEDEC
UniProt Q9Y603: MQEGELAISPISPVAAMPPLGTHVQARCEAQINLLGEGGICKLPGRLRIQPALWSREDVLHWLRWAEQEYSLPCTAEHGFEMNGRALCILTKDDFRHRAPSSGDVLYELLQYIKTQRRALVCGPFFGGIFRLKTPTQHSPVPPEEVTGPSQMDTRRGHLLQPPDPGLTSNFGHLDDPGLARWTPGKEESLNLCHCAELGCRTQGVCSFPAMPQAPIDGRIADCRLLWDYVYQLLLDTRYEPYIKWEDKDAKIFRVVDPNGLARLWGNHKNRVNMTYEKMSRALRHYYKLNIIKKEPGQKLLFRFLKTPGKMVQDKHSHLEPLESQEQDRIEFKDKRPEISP

One experiment has as its target T1, ELF3 (UniProt P78545).
T1 sequence: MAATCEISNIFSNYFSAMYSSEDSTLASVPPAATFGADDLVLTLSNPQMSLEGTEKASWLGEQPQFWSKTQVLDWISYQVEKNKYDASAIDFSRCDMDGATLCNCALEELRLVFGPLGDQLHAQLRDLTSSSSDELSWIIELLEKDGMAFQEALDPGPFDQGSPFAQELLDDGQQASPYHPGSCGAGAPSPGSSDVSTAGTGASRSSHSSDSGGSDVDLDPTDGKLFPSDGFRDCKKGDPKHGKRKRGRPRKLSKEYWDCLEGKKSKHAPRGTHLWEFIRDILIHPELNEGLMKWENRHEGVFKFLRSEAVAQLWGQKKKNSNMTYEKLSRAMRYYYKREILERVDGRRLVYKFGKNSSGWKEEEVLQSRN

In the next experiment the target is ETV6 (UniProt P41212).
The next experiment has as its target ETV7 (UniProt Q9Y603).

This is a selection; strong and weak results do not stand in their true shares. At the low end of the ranking, values are background and their order means little.

With ACAATG, the binding signal in the experiment with ELF3 turned out to be 1.17; with ETV6, 1.06.

Regarding GCATAC, the binding signal with ELF3 was 0.867; with ETV6, 0.894.

For the sequence GAAGAT, the results for the binding signal with ELF3 and in the experiment with ETV6 were 0.864 and 0.943, respectively.

For CAGAAA, the binding signal is 0.982 in the experiment with ELF3 and 0.921 with ETV6.

Take GTCTTG: the binding signal in the experiment with ELF3 amounted to 0.979; with ETV6, 0.912.

Take TCATCT: the binding signal was determined as 1.37 with ELF3 and 1.22 with ETV6.

ATAGAC: the binding signal with ELF3 amounted to 0.966; with ETV6 it was 0.943.

Regarding TCGTTA, the binding signal in the experiment with ELF3 was 0.87; in the experiment with ETV6, 0.946.

Consider CGACAG, for which the values for the binding signal with ELF3 and with ETV6 were 0.999 and 0.875, respectively.

Turning to CTCAGC, the binding signal with ELF3 and with ETV6 was 1.2 throughout.

Turning to GCTGTT, the binding signal in the experiment with ELF3 worked out at 1.17; with ETV6, 1.03.

Regarding AGTTTT, the binding signal with ELF3 was found to be 1.01; with ETV6, 0.984.

As to TGTATG, the binding signal with ELF3 was 1.19; with ETV6, 1.16.

CGGCCC: the binding signal is 0.89 in the experiment with ELF3 and 0.905 with ETV6.

Regarding AGTGGC, the binding signal with ELF3 stood at 1.36; with ETV6, 1.27.

Consider GATCTA, for which the binding signal with ELF3 stood at 1.07; in the experiment with ETV6, 0.947.

As for TGTAAC, the binding signal worked out at 1.22 in the experiment with ELF3 and 1.2 in the experiment with ETV6.

As for CCCCAA, the binding signal with ELF3 was 1.24; with ETV6 it was 1.14.

Take TAGACT: the binding signal in the experiment with ELF3 was determined as 0.897; with ETV6, 0.898.

With GTCATT, the figures for the binding signal with ELF3 and with ETV6 were 0.978 and 0.99, respectively.

Take CGAAAT: the binding signal with ELF3 came out at 0.957; with ETV6, 0.98.

As for TCTTCG, the binding signal with ELF3 stood at 1.47; with ETV6 it was 1.36.

With ACAGCA, the binding signal in the experiment with ELF3 worked out at 0.984; with ETV6, 0.999.

Take GTCTAA: the binding signal with ELF3 was 0.992; with ETV6, 0.947.

For the sequence AGCACA, the binding signal is 0.929 with ELF3 and 1.11 with ETV6.

GAAACA: the values for the binding signal in the experiment with ELF3 and with ETV6 were 1.52 and 1.45, respectively.

AGAAAA: the binding signal with ELF3 amounted to 0.871; with ETV6, 0.967.

CTTAAA: the binding signal stood at 1.2 with ELF3 and 1.26 in the experiment with ETV6.

Turning to AATCTG, the binding signal stood at 1.47 with ELF3 and 1.4 in the experiment with ETV6.

TAGGCC: the binding signal came to 0.996 with ELF3 and 0.907 with ETV6.

Take GCTAGA: the binding signal with ELF3 amounted to 0.984; in the experiment with ETV6, 0.993.

GACTAC: the binding signal in the experiment with ELF3 stood at 1.2; with ETV6, 1.11.

Regarding TAACGT, the values for the binding signal with ELF3 and with ETV6 were 1.06 and 0.939, respectively.

Consider ATTAAA, for which the binding signal with ELF3 is 1.05; with ETV6, 1.18.

On to TTTTCT, for which the binding signal with ELF3 was 1.35; with ETV6, 1.32.

For the sequence TGTCAA, the binding signal in the experiment with ETV7 came to 0.939.

TTATGC displayed a binding signal with ETV7 of 1.44.

For AGAATA, the binding signal with ETV7 is 1.08.

In the case of TCACAA, in the experiment with ETV7, the binding signal was 0.971.

As to ATGGCG, the binding signal in the experiment with ETV7 was 1.01.

In the experiment with ETV7, ATAATG displayed a binding signal of 1.01.

For ATTACA, the binding signal with ETV7 is 1.08.

As for TGATAT, in the experiment with ETV7, the binding signal was found to be 1.03.

The sequence CGCGTT displayed a binding signal in the experiment with ETV7 of 1.02.

Sequence AGGAAC registered a binding signal with ETV7 of 0.988.

Turning to AACAAG, the binding signal with ETV7 is 1.14.

For CAATTA, the binding signal in the experiment with ETV7 came to 1.15.

In the experiment with ETV7, GGTCTA registered a binding signal of 0.946.

For the sequence CCCCAC, in the experiment with ETV7, the binding signal was 1.11.

In turn, AACTGT had a binding signal in the experiment with ETV7 of 0.931.

TTAATA: in the experiment with ETV7, the binding signal worked out at 1.23.

As for CTTGTA, the binding signal in the experiment with ETV7 stood at 1.17.

In the experiment with ETV7, TACACT yielded a binding signal of 1.49.

Sequence CCACCT had a binding signal with ETV7 of 0.99.

Sequence CTCCGA gave a binding signal with ETV7 of 1.24.

CACCAC came in with a binding signal in the experiment with ETV7 of 1.04.

Regarding ATCGTT, the binding signal with ETV7 came to 0.974.

In turn, TAATTC yielded a binding signal in the experiment with ETV7 of 1.38.

AAAAAC displayed a binding signal with ETV7 of 1.29.

In the experiment with ETV7, CCCCAG displayed a binding signal of 0.852.

TAGTGG yielded a binding signal with ETV7 of 1.17.

In the experiment with ETV7, ACTGTT gave a binding signal of 1.01.

In the experiment with ETV7, GAAGTG registered a binding signal of 1.7.

For the sequence TTAAAT, in the experiment with ETV7, the binding signal came to 1.21.

CTCGAC: the binding signal with ETV7 was 1.37.

As for CTTGAA, the binding signal in the experiment with ETV7 is 1.08.

As for TATCGC, in the experiment with ETV7, the binding signal worked out at 1.

In the case of CCAAAC, in the experiment with ETV7, the binding signal was 0.99.

In the experiment with ETV7, CCTTTT displayed a binding signal of 1.53.

In the experiment with ETV7, GACTTC gave a binding signal of 2.2.

For AACCTA, the binding signal with ETV7 was determined as 1.03.

As to TACAGA, the binding signal in the experiment with ETV7 came out at 1.18.

Sequence GTGTCC yielded a binding signal with ETV7 of 1.22.

In the experiment with ETV7, ATGTGG came in with a binding signal of 1.08.

Consider AACGCC, for which the binding signal in the experiment with ETV7 was 0.942.

In the experiment with ETV7, ATCAAC showed a binding signal of 1.02.

In the experiment with ETV7, TCAGCC showed a binding signal of 0.886.

TCCACG had a binding signal with ETV7 of 1.06.

Consider CTTAAT, for which, in the experiment with ETV7, the binding signal was 1.33.

As for CTTTAT, the binding signal with ETV7 is 1.31.

For the sequence AACTCC, the binding signal with ETV7 was found to be 1.31.

For the sequence GGCCTT, in the experiment with ETV7, the binding signal amounted to 1.34.

As for GTCTCG, the binding signal in the experiment with ETV7 turned out to be 1.28.

Consider ATGTAG, for which the binding signal with ETV7 was 0.934.

The sequence CTCTCC gave a binding signal with ETV7 of 1.31.

In the experiment with ETV7, ACACCT gave a binding signal of 1.11.

CCACAA yielded a binding signal in the experiment with ETV7 of 0.997.

ATATAT returned a binding signal in the experiment with ETV7 of 1.29.

The sequence GTTCGA registered a binding signal with ETV7 of 1.13.

Sequence CTAACA displayed a binding signal with ETV7 of 1.16.

Consider GACGAC, for which the binding signal in the experiment with ETV7 worked out at 0.956.

Sequence GGACCT came in with a binding signal in the experiment with ETV7 of 1.34.

Regarding TTAGCA, the binding signal with ETV7 is 1.19.

For AACCGG, in the experiment with ETV7, the binding signal was found to be 1.36.

AAAATG came in with a binding signal with ETV7 of 1.28.

CCCCGT gave a binding signal with ETV7 of 0.89.

AACAAC registered a binding signal in the experiment with ETV7 of 1.3.

With GCCCTC, the binding signal in the experiment with ETV7 is 1.22.

Take TATGCC: the binding signal in the experiment with ETV7 came to 1.19.

For the sequence ATCCAC, the binding signal with ETV7 is 1.18.

Consider ACTGAA, for which, in the experiment with ETV7, the binding signal was determined as 1.06.

Sequence GTAATC gave a binding signal in the experiment with ETV7 of 1.17.

The sequence TTCATG showed a binding signal in the experiment with ETV7 of 1.35.

In the experiment with ETV7, AATATA gave a binding signal of 1.36.

ACGTCT gave a binding signal with ETV7 of 1.29.

Regarding TCTAGG, the binding signal with ETV7 was 1.16.

As to TGCCCT, the binding signal in the experiment with ETV7 stood at 1.08.

In the experiment with ETV7, ATAAGG gave a binding signal of 0.975.

Consider CTACTG, for which the binding signal with ETV7 was 1.26.

On to CGCGCC, for which the binding signal in the experiment with ETV7 was found to be 0.997.

AGGTAA displayed a binding signal with ETV7 of 0.959.

Sequence CCTCCG came in with a binding signal in the experiment with ETV7 of 1.2.

For the sequence GCCCAA, in the experiment with ETV7, the binding signal was found to be 0.91.

Regarding GCCCCC, the binding signal amounted to 0.939 with ETV7 and 1.05 in the experiment with ETV6.

TGGTGA: the binding signal came to 0.988 in the experiment with ETV7 and 0.921 with ETV6.

Sequence CACGGA gave a binding signal with ETV7 of 0.956.

As for CATGCG, the binding signal amounted to 1.21 with ETV7 and 1.16 with ETV6.

Sequence TACAAA registered a binding signal with ETV7 of 1.11.

For the sequence TGGTCA, in the experiment with ETV7, the binding signal is 0.989.

In the case of AGAAGA, the binding signal was determined as 1.01 in the experiment with ETV7 and 0.934 with ETV6.
